Results deposited as PubChem BioAssay AID1224830 (NIAID, 2016)
Here is an unselected part of about 18,000 reagents tested. In the full data, about 2,900 (16%) are marked active. 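Calls are made per well; low scores hint the gene aids the LPS response, high scores that it dampens it.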 Repeated entries: four replicate wells of each siRNA pool.

- Aim: 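Regulators of TLR4 signalling towards TNF-alpha in macrophage-like cells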 (primary screen)
- System: human THP-1 monocytic leukaemia cells, TNF dual-luciferase reporter clone, PMA-differentiated to macrophage-like cells
- Reagents: siRNA pool against human genes, 50 nM
- Time to read-out: LPS for 4 h, given about 3 days after siRNA transfection
- Challenge: bacterial LPS (TLR4 ligand), 10 ng/ml
- Measurement: 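TNF firefly reporter luminescence divided by renilla, normalised to the plate median, then turned into a robust z-score for each replicate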
- Reading the numbers: TNF reporter robust z-score: higher = stronger TNF reporter response to LPS
- Hit rule: 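a well is active when its z-score exceeds 2.8 or falls below -1.5; control wells carry no call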

TASP1 (taspase 1) | TNF reporter robust z-score = -0.84; outcome = inactive
TASP1 (taspase 1) | TNF reporter robust z-score = -0.23; outcome = inactive
TASP1 (taspase 1) | TNF reporter robust z-score = -1.56; outcome = active
TASP1 (taspase 1) | TNF reporter robust z-score = 0.94; outcome = inactive
SF3B2 (splicing factor 3b subunit 2) | TNF reporter robust z-score = -1.3; outcome = inactive
SF3B2 (splicing factor 3b subunit 2) | TNF reporter robust z-score = -0.7; outcome = inactive
SF3B2 (splicing factor 3b subunit 2) | TNF reporter robust z-score = -1.01; outcome = inactive
SF3B2 (splicing factor 3b subunit 2) | TNF reporter robust z-score = -0.97; outcome = inactive
OR6C75 (olfactory receptor family 6 subfamily C member 75) | TNF reporter robust z-score = -0.72; outcome = inactive
OR6C75 (olfactory receptor family 6 subfamily C member 75) | TNF reporter robust z-score = 0.76; outcome = inactive
OR6C75 (olfactory receptor family 6 subfamily C member 75) | TNF reporter robust z-score = 0.4; outcome = inactive
OR6C75 (olfactory receptor family 6 subfamily C member 75) | TNF reporter robust z-score = 1.25; outcome = inactive
SERPINI2 (serpin family I member 2) | TNF reporter robust z-score = -1.94; outcome = active
SERPINI2 (serpin family I member 2) | TNF reporter robust z-score = -1.08; outcome = inactive
SERPINI2 (serpin family I member 2) | TNF reporter robust z-score = -1.15; outcome = inactive
SERPINI2 (serpin family I member 2) | TNF reporter robust z-score = -1.18; outcome = inactive
RHBDL3 (rhomboid like 3) | TNF reporter robust z-score = 1.36; outcome = inactive
RHBDL3 (rhomboid like 3) | TNF reporter robust z-score = 0.22; outcome = inactive
RHBDL3 (rhomboid like 3) | TNF reporter robust z-score = 1.16; outcome = inactive
RHBDL3 (rhomboid like 3) | TNF reporter robust z-score = -0.72; outcome = inactive

Next part; the last 4 above are carried over.
RHBDL3 (rhomboid like 3) | TNF reporter robust z-score = 1.36; outcome = inactive
RHBDL3 (rhomboid like 3) | TNF reporter robust z-score = 0.22; outcome = inactive
RHBDL3 (rhomboid like 3) | TNF reporter robust z-score = 1.16; outcome = inactive
RHBDL3 (rhomboid like 3) | TNF reporter robust z-score = -0.72; outcome = inactive
SPP2 (secreted phosphoprotein 2) | TNF reporter robust z-score = -0.56; outcome = inactive
SPP2 (secreted phosphoprotein 2) | TNF reporter robust z-score = -1.26; outcome = inactive
SPP2 (secreted phosphoprotein 2) | TNF reporter robust z-score = -0.74; outcome = inactive
SPP2 (secreted phosphoprotein 2) | TNF reporter robust z-score = -0.11; outcome = inactive
SLC36A4 | TNF reporter robust z-score = 0.24; outcome = inactive
SLC36A4 | TNF reporter robust z-score = 0.56; outcome = inactive
SLC36A4 | TNF reporter robust z-score = 0.05; outcome = inactive
SLC36A4 | TNF reporter robust z-score = 0.89; outcome = inactive
HEBP2 (heme binding protein 2) | outcome = inactive
HEBP2 (heme binding protein 2) | TNF reporter robust z-score = -0.33; outcome = inactive
HEBP2 (heme binding protein 2) | TNF reporter robust z-score = -0.72; outcome = inactive
HEBP2 (heme binding protein 2) | TNF reporter robust z-score = 0.33; outcome = inactive
